Measured values as given in PubChem BioAssay AID2685 (National Center for Advancing Translational Sciences (NCATS), 2010).
The list shows a part of the results. These are further read-outs of the screen, such as a control signal, another cell line or another target. No call is given for them. Most of these compounds were active or inconclusive in the main read-out, so they are no random draw. Words in brackets tell the shape of the fitted curve; partial curves, single points and poor fits give uncertain potencies.

Assay: qHTS Assay for Lipid Storage Modulators in Drosophila S3 Cells;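 for cell number change: cells counted by Cell Tracker Red CMTPX staining in the red channel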
Conditions: BODIPY lipid droplet fluorescence, 18-24 h; for cell number change: measured here: cell count max response, cells fed with added oleic acid
Method in brief: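 Laser-scanning cytometry quantifies lipid droplet accumulation (500–530 nm total intensity; droplet/cell object ratio) in oleic acid-fed (400 uM added) Drosophila S3 cells treated with a concentration series. 20 uM Triacsin C defined 100% inhibition.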

[1] = measured here: lipid fluorescence (Fed channel) AC50, cells fed with added oleic acid
[2] = measured here: cell number channel AC50, cells fed with added oleic acid

In the case of `Cc1ccccc1Cn1c2ccccc2c2cnn(CC(=O)NCc3ccccn3)c(=O)c21`, the cell number change is reported as 3.05% and the AC50 [1] is reported as 29.1 µM [falling, single point].

`Cc1ccccc1CN1CCC(CNC(=O)C2CCCN(c3ncnc4c3nc3n4CCCCC3)C2)CC1` (stereo unspecified) showed a cell number change of 27.6%.

With `Nc1ncnc(N)c1N=Nc1ccccc1` the cell number change was -42.6%, the AC50 [2] was 20.6 µM [falling, partial curve] and the AC50 [1] was 5.17 µM [falling, full curve].

Compound `O=C(NNc1nc2c(F)cccc2s1)c1ccc(F)cc1` has a cell number change of 27.9%.

For `CS(=O)(=O)c1ccc(C(=O)NCC(c2ccco2)N2CCCCC2)cc1` (stereo unspecified), the cell number change was 19% and the AC50 [1] was 25.9 µM [falling, partial curve].

With `CCN1CCN(C(=O)c2cc3nc(-c4ccccc4)cc(C(F)(F)F)n3n2)CC1` the cell number change was -6.48%.

For `O=C(C1CCC(=O)N1Cc1cccnc1)N1CCN(c2ccc(F)cc2)CC1` (stereo unspecified), the cell number change was 38.4%, the AC50 [2] was 5.8 µM [rising, single point] and the AC50 [1] was 6.51 µM [rising, single point].

In the case of `CC(C)CNC(=O)CO/N=C/c1ccccc1Cl`, the cell number change is reported as 44.8% and the AC50 [2] is reported as 29.1 µM [rising, single point].

For `CC(=O)NC1(c2ccccc2)CCN(C(=O)N2CCOCC2)CC1`, the AC50 [1] was 0.146 µM [falling, full curve].

With `Cc1ccc(-n2nc3c(=O)n(CC(=O)NCCCc4ccccc4)nc(C)c3c2C)cc1` the AC50 [1] was 29.1 µM [falling, single point].

In the case of `Cc1cc(N2CCN(C3CCCC3)CC2)n2ncc(-c3ccccc3)c2n1`, the cell number change is reported as 2.83% and the AC50 [2] is reported as 0.116 µM [falling, full curve].

With `COCCCNCC(O)C(F)(F)F` (stereo unspecified) the cell number change was 7.45%, the AC50 [2] was 0.326 µM [falling, partial curve, poor fit] and the AC50 [1] was 0.164 µM [falling, full curve].

With `Cc1ccc(S(=O)(=O)N2[C@@H](c3ccccc3F)C(C(=O)O)=CC[C@H]2c2ccc(Cl)cc2)cc1` the cell number change was 13.1% and the AC50 [1] was 0.651 µM [rising, full curve].

For `N=C1C(c2nc(-c3cccc([N+](=O)[O-])c3)cs2)=C(O)CN1NC(=O)c1ccco1`, the cell number change was 39.1% and the AC50 [2] was 5.17 µM [rising, full curve].

In the case of `CCC(=O)NCc1ccc(-c2nc3ncccc3o2)cc1`, the cell number change is reported as -22.4% and the AC50 [2] is reported as 0.00411 µM [falling, full curve, poor fit].

For `CN(C)S(=O)(=O)c1ccc(Cl)c(NC(=O)CSc2nc3ccccc3c(=O)n2CCCN2CCOCC2)c1`, the cell number change was -42.4%, the AC50 [2] was 0.00461 µM [falling, full curve, poor fit] and the AC50 [1] was 29.1 µM [falling, single point].
